This note sets out measurements from patent US7129208B2 (Washington University, priority 2002, dated 2006).

The star is where a group is joined. Boc = CC(C)(C)OC(=O)*

The nature of data set [1]: general procedure: solution-phase peptide synthesis; EDCI, EDCI/HOBt; PyCloP for SEQ ID NO: 7.

The substance “(H37C18)2N—CO—CH2—O—CH2—CO-Gly-Gly-Gly-Pro-Gly-Gly-Gly-piperonylamine” registered a step yield in the data set “peptide synthesis” (late stage modification step) of 76%.

In “peptide synthesis” (coupling step), “(C18H37)2NCOCH2OCH2CO-Gly-Gly-Gly-Pro-Gly-Gly-Gly-OCH2Ph (GGGPGGG; N-terminal dioctadecylamide anchor, C-terminal benzyl ester; Synthetic amino acids)” showed a step yield of 82%.

“(H21C10)N(C2H5)—CO—CH2—O—CH2—CO-Gly-Gly-Gly-Pro-Gly-Gly-Gly-OCH2Ph” registered a step yield in the data set “peptide synthesis” (coupling step) of 75%.

In turn, Boc-Pip-Gly-Gly-Gly-OCH2Ph showed a step yield in data set [1] (coupling step) of 91%.

In the case of Boc-PGGG-OEt, the step yield in data set [1] (coupling step) was found to be 87.6%.

For the substance “(H17C8)2N—CO—CH2—O—CH2—CO-Gly-Gly-Gly-Pro-Gly-Gly-Gly-OCH2Ph”, the step yield in the data set “peptide synthesis” (coupling step) stood at 50%.

“(H37C18)2N—CO—CH2—O—CH2—CO-Gly-Gly-Gly-Pro-Gly-Gly-Gly-OEt”: the step yield in the data set “peptide synthesis” (coupling step) came to 37.5%.

For “(H37C18)2N—CO—CH2—O—CH2—CO-Gly-Gly-Gly-Pip-Gly-Gly-Gly-OCH2Ph”, the step yield in “peptide synthesis” (coupling step) worked out at 82%.

Substance Boc-Pro-Gly-Gly-Gly-OCH2Ph came in with a step yield in data set [1] (coupling step) of 71%.

As to Pro-Gly-Gly-Gly-OCH2Ph, the step yield in data set [1] (late stage modification step) stood at 100%.

Substance “182DGA-Gly-Gly-Gly-3-amino-4-methoxybenzoic Acid-Gly-Gly-Gly-OBz” displayed a step yield in “peptide synthesis” (coupling step) of 28%.
